In PMC8588432:
Construct, isoform or probe ends are uncertain for at least one entry. At least one result comes from cells or an extract, where the contact may be indirect. Weaker means in comparison with the reference protein, sequence or condition of that experiment. For some assays here: At least one verdict was read from the data and is not stated in words by the source.

Sequences of proteins named here, by UniProt entry; tags and fusion partners are left off. Residues count along the entry.
UniProt P08670, 2-466: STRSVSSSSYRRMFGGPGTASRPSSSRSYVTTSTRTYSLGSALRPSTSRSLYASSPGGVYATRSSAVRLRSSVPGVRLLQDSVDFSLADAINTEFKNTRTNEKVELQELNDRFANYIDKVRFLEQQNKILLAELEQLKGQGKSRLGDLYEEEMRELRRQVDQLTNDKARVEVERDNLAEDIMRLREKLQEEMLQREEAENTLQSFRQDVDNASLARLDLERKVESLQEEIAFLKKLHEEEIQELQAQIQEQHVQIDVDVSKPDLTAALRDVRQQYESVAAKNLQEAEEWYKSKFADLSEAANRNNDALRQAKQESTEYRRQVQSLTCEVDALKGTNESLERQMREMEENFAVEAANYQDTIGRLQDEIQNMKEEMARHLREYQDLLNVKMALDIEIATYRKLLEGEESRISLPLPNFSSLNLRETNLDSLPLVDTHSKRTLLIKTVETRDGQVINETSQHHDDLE

Tests used:
[1] = target: vimentin on/in IGROV cells (UniProt P08670); experiment: flow cytometry and fluorescence microscopy; conditions: fixed IGROV cells, monothioated phosphates 3' of adenines (shown in red, positions not in text), 22 C, 1 h, protein on the cell surface, synthetic backbone
[2] = target: vimentin on/in IGROV cells (UniProt P08670); experiment: flow cytometry; conditions: fixed IGROV cells, 22 C, 1 h, protein on the cell surface, label: 5'-biotin, synthetic backbone
[3] = lower than V5M2, monothioated phosphates 3' of adenines
[4] = lower than V3M2, monothioated phosphates 3' of adenines

“ACCTCTTCAAGAACATCCCTGTCACGGATCCTCTAGAGCA [V3M2]”: binds ([1]; label: 5'-biotin).

AAGCTTCGCATAGACCCAGCTGGTCCG [V5M1]: binds more weakly [2, 3].

“TAGACCCAGCTGGTCCGGAAAATAAGATGTCACGGATCCTC [V5M2]”: binds ([1]; label: 5'-biotin).

“AGCTTCGCATAGACCCAGCTGGTCCGGAAAATAAGAT [V5M3]”: binds more weakly [2, 3].

CGGATCGATAAGCTTCGATCATCGATCAC [V3M1]: binds more weakly [2, 4].

CGGATCGATAAGCTTCGATCAT [V3M4]: binds more weakly [2, 4].

CAAGAACATCCCTGTCACGGATCCTCTAG [V3M3]: binds more weakly [2, 4].

“CCCACTTATCGTCCCTTAATGAGTTTACTCGCACACCGGA [Scrambled control (40 mer)]”: binds more weakly ([1]; minimal fluorescence, non-specific and low binding, label: biotin).
